# Earlier results, collected in patent US20200009168A1, “MICROBIOME REGULATORS AND RELATED USES THEREOF” (KALEIDO BIOSCIENCES, INC., priority 2015, published 2020).
# Conditions: sucrose as reference; cited from earlier work
row,SMILES,"relative sweetness compared to sucrose, in words"
1,O=C(CO)[C@@H](O)[C@H](O)[C@H](O)CO [D-fructose],"roughly as sweet or, in many cases, less sweet than sucrose"
2,OC[C@@H](O)[C@@H](O)[C@H](O)[C@@H](O)CO [D-sorbitol],"roughly as sweet or, in many cases, less sweet than sucrose"
3,OC[C@H]1O[C@H](O[C@H]2[C@H](O)[C@@H](O)[C@H](O)O[C@@H]2CO)[C@H](O)[C@@H](O)[C@@H]1O [D (+) maltose],"roughly as sweet or, in many cases, less sweet than sucrose"
4,O=C[C@H](O)[C@@H](O)[C@@H](O)[C@H](O)CO [D-galactose],"roughly as sweet or, in many cases, less sweet than sucrose"
5,OC[C@H]1O[C@@H](O[C@H]2[C@H](O)[C@@H](O)C(O)O[C@@H]2CO)[C@H](O)[C@@H](O)[C@H]1O (stereo partly drawn) [lactose],"roughly as sweet or, in many cases, less sweet than sucrose"
6,O=C[C@H](O)[C@@H](O)[C@H](O)CO [D-xylose],"roughly as sweet or, in many cases, less sweet than sucrose"

# Some compounds share one wording; it may come from a single statement.
